Some of the results follow.
What was measured:
Experiment in all cases: log2 fold change, soluble protein after heating vs DMSO (PISA); higher = thermal stabilisation; K562 cells, 10 uM, 30 min; active = over 0.2 and 3.5 SD of the protein, either way, in both replicates (recomputed)
[1] = compound: NC(=O)Nc1cc(-c2cccc(F)c2)sc1C(=O)N[C@H]1CCCNC1
Method in brief: (§1)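 K562 cells at 2×10^6 cells/mL were treated with 10 μM compound for 30 min. Aliquots were heated for 3 min across 48°C-58°C, pooled, and extracted in PBS with 0.5% NP-40 at 4°C; soluble protein was the supernatant after 21,000xg for 90 min. Soluble protein was quantified by TMTpro 16plex LC-MS/MS with channel sums equalised, and reported as log2 fold change in thermal stability against DMSO controls, with values from duplicates.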

By UniProt entry, the sequences of proteins in these tests, tags left out. Where a name states a change or a piece, a line headed by the entry shows the natural chain unless it says otherwise.
UniProt Q96AJ9: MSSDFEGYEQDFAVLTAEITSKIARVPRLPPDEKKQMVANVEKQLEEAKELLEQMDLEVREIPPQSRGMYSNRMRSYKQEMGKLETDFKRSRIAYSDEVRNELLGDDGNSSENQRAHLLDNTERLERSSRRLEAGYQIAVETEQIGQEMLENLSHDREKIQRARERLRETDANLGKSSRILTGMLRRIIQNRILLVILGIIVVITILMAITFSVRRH
UniProt Q6PJI9: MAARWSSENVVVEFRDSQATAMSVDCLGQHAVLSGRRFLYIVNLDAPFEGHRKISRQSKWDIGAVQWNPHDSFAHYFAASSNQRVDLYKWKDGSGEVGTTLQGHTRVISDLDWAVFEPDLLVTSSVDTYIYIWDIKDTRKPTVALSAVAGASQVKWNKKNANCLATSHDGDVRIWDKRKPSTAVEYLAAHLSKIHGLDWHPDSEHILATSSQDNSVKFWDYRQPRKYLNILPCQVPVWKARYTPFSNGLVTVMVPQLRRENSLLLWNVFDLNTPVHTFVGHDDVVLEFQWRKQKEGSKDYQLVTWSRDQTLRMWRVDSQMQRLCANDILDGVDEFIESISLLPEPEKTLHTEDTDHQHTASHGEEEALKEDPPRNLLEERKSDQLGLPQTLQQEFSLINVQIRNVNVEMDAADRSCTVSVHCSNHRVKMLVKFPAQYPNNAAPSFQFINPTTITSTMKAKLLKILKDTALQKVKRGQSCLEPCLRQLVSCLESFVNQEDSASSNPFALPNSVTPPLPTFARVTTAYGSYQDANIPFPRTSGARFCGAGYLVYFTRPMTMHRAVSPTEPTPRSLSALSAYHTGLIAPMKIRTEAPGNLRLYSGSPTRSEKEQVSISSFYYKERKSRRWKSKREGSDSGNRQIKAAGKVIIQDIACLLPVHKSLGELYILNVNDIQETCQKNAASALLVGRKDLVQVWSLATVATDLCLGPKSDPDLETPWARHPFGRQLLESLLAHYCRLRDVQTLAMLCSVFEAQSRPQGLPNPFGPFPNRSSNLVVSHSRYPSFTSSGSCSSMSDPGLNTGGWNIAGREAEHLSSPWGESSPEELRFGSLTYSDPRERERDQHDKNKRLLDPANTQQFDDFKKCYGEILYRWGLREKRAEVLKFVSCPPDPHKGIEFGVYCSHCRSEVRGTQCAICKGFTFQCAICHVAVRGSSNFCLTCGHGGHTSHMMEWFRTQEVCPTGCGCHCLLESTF
UniProt Q3ZAQ7: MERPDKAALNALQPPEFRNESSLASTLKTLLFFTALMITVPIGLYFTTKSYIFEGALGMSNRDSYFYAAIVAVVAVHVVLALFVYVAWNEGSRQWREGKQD
UniProt O95785: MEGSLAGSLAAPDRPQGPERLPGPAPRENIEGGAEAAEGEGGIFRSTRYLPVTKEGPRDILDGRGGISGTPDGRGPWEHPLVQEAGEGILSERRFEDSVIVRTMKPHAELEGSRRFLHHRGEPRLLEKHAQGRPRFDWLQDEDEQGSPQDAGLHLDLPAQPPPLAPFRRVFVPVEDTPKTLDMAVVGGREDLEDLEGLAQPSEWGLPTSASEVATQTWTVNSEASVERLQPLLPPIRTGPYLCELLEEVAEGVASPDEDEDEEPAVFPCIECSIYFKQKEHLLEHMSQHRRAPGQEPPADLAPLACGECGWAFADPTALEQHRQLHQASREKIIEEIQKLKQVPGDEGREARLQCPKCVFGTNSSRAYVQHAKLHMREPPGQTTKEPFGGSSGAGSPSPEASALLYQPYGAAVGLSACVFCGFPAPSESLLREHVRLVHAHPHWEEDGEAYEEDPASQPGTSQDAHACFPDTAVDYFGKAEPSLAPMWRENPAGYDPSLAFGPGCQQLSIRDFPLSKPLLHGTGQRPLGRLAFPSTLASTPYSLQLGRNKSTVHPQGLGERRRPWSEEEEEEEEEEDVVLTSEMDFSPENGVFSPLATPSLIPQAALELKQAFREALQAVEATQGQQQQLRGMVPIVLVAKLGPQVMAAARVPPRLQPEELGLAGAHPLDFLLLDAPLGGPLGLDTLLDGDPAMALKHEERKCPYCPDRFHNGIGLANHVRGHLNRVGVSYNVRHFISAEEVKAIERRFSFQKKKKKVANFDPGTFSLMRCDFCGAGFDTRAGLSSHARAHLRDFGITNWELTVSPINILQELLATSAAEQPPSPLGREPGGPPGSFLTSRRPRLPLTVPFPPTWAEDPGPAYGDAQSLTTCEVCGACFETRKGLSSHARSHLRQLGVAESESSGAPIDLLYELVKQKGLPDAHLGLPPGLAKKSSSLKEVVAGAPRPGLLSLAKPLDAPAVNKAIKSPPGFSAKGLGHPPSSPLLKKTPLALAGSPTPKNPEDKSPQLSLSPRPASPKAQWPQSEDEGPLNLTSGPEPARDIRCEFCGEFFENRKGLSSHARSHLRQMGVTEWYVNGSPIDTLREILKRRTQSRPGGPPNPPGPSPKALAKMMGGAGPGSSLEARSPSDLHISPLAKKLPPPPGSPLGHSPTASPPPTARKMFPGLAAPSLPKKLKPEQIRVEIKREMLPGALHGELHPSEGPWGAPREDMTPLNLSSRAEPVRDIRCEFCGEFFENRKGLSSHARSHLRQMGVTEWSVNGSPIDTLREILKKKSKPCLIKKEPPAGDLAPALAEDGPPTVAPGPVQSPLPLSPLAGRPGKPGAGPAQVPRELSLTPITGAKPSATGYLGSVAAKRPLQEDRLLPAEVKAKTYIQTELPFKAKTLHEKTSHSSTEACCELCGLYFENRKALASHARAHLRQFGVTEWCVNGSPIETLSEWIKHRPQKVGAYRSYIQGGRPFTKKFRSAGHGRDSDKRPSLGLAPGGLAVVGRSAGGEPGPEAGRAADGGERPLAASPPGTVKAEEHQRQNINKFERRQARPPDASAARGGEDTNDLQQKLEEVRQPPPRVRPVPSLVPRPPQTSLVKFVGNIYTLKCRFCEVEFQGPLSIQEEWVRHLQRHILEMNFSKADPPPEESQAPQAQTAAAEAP
UniProt Q8N2E2: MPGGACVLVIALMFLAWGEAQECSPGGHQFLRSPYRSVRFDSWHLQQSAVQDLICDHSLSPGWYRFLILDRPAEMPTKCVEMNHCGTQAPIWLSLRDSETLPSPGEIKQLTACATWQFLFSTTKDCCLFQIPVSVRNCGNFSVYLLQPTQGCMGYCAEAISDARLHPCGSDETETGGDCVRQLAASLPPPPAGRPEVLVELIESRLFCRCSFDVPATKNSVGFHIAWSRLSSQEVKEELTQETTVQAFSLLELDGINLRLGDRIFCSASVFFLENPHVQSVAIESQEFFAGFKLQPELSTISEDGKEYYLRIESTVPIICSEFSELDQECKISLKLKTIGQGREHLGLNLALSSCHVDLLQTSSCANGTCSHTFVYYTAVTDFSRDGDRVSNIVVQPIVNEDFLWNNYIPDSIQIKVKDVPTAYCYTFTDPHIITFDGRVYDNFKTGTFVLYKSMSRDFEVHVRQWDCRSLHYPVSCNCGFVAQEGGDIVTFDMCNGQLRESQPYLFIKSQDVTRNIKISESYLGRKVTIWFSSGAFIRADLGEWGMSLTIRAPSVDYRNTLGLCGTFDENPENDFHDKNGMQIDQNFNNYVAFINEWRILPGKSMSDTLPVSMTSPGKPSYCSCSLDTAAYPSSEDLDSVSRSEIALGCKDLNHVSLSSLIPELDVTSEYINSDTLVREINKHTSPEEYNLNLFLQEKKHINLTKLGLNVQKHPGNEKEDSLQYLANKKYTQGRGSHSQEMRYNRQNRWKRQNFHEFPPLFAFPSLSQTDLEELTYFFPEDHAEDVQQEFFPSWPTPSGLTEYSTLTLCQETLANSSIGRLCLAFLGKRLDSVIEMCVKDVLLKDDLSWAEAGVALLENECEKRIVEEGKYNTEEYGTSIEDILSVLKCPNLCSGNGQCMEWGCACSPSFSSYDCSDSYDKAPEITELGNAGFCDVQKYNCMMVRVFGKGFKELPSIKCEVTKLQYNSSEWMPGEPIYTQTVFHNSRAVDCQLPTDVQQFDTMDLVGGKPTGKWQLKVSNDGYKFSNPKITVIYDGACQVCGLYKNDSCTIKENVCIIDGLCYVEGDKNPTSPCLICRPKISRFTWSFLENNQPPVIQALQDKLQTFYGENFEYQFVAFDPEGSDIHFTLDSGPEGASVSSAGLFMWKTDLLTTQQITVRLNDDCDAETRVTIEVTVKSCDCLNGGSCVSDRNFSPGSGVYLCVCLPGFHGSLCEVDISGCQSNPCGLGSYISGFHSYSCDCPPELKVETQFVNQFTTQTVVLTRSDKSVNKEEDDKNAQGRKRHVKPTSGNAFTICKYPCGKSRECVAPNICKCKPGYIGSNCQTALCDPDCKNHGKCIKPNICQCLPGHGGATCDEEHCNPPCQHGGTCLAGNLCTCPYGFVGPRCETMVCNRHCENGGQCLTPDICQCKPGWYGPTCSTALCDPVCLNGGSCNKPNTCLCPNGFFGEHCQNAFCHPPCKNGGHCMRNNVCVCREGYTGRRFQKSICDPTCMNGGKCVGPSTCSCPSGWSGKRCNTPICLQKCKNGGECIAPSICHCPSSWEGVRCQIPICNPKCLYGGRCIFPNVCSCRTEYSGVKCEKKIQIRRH
UniProt Q8N1B4: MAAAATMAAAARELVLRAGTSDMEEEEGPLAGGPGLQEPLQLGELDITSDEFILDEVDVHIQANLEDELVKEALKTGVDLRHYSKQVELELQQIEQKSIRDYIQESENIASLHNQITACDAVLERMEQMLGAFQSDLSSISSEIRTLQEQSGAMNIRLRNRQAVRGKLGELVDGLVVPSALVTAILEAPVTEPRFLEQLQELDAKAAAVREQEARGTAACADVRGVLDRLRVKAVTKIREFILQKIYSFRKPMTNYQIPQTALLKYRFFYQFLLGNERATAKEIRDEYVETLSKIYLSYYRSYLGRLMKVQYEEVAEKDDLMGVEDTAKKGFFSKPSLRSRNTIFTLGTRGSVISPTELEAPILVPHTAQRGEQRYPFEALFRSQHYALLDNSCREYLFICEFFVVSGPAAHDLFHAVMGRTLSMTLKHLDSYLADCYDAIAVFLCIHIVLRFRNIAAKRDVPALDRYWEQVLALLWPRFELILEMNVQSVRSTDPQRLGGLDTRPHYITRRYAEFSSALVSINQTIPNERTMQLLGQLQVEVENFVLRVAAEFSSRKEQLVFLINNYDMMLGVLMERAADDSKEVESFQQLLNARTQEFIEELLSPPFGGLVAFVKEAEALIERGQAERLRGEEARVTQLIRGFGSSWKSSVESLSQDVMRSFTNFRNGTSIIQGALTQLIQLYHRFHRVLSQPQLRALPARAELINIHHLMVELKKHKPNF
UniProt Q99986: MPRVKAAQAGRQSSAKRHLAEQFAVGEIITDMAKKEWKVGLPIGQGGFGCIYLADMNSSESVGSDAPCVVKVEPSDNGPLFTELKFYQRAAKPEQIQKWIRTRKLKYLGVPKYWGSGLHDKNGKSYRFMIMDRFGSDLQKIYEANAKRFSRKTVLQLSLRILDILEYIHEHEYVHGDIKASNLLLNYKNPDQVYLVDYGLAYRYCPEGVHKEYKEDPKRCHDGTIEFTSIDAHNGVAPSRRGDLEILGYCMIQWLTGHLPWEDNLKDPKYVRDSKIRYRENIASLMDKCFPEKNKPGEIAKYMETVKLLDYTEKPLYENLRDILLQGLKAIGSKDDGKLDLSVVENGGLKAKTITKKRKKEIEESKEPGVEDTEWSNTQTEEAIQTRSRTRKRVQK
UniProt Q8IWB7: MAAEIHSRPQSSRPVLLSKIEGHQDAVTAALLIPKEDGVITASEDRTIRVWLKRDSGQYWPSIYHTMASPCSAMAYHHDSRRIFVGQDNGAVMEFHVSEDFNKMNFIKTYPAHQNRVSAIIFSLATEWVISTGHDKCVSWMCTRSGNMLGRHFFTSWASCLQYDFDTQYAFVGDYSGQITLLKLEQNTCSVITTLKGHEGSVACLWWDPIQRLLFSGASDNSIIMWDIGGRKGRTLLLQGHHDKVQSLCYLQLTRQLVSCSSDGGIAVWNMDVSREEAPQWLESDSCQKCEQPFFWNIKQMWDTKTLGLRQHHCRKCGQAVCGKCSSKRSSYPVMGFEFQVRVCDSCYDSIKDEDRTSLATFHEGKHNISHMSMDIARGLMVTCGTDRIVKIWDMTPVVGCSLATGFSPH
UniProt Q96MX6, whole entry, looked up: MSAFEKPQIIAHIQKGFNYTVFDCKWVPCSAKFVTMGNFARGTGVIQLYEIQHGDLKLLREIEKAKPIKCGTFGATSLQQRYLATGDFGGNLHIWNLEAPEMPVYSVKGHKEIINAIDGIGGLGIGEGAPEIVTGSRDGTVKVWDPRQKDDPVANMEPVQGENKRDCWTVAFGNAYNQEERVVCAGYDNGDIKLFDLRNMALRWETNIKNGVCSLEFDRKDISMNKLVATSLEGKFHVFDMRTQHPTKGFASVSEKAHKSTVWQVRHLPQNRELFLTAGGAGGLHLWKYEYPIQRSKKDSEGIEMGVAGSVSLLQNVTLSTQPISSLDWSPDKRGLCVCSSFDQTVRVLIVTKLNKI

[2] = compound: NC(=O)c1cnc(N[C@@H]2CCCC[C@@H]2N)nc1Nc1cccc(-n2nccn2)c1
Method in brief: as §1

[3] = compound: NC1(c2ccc(-c3nc4ccn5c(=O)[nH]nc5c4cc3-c3ccccc3)cc2)CCC1
Method in brief: as §1

[4] = compound: NCC(=O)Nc1ccc(-n2nc(C(F)(F)F)cc2-c2ccc3c(ccc4ccccc43)c2)cc1
Method in brief: as §1

entinostat = compound: Nc1ccccc1NC(=O)c1ccc(CNC(=O)OCc2cccnc2)cc1 [entinostat]
Method in brief: as §1

vorinostat = compound: O=C(CCCCCCC(=O)Nc1ccccc1)NO [vorinostat]
Method in brief: as §1

citarinostat = compound: O=C(CCCCCCNC(=O)c1cnc(N(c2ccccc2)c2ccccc2Cl)nc1)NO [citarinostat]
Method in brief: as §1

silmitasertib = compound: O=C(O)c1ccc2c(c1)nc(Nc1cccc(Cl)c1)c1ccncc12 [silmitasertib]
Method in brief: as §1

[5] = compound: O=C1NC(=O)C(c2cnc3ccccn23)=C1c1cn2c3c(cc(F)cc13)CN(C(=O)N1CCCCC1)CC2
Method in brief: as §1

[6] = compound: c1cc(OCCN2CCCCC2)cc(-c2n[nH]c3ccc(-c4nnc[nH]4)cc23)c1
Method in brief: as §1

Target | log2 fold change [1] | log2 fold change [2] | log2 fold change [3] | log2 fold change [4] | log2 fold change (entinostat) | log2 fold change (vorinostat) | log2 fold change (citarinostat) | log2 fold change (silmitasertib) | log2 fold change [5] | log2 fold change [6]
VTI1A (UniProt Q96AJ9) | inactive: -0.07 | inactive: 0.014 | inactive: -0.125 | inactive: -0.014 | inactive: -0.009 | inactive: 0.028 | inactive: -0.016 | inactive: 0.051 | inactive: -0.01 | inactive: -0.039
VPS35 (UniProt Q96QK1) | inactive: -0.013 | inactive: -0.03 | inactive: -0.147 | inactive: -0.013 | inactive: 0.024 | inactive: 0.025 | inactive: 0.067 | inactive: -0.032 | inactive: -0.049 | inactive: -0.031
WAPL isoform 3 (UniProt Q7Z5K2) | inactive: -0.009 | inactive: -0.033 | active: -0.423 | inactive: -0.066 | inactive: 0.01 | inactive: 0.082 | inactive: 0.198 | inactive: 0.067 | inactive: -0.148 | inactive: 0.078
WDR59 (UniProt Q6PJI9) | inactive: 0.105 | inactive: -0.07 | inactive: 0.182 | inactive: -0.028 | inactive: -0.008 | inactive: 0.015 | inactive: 0.028 | inactive: -0.194 | inactive: 0.017 | inactive: 0.125
VMA21 (UniProt Q3ZAQ7) | inactive: 0.046 | inactive: -0.004 | inactive: -0.076 | inactive: 0.047 | inactive: 0.036 | inactive: -0.226 | inactive: -0.016 | inactive: -0.047 | inactive: -0.137 | inactive: 0.006
WDR82 (UniProt Q6UXN9) | inactive: -0.005 | inactive: 0.039 | inactive: 0.12 | inactive: 0.046 | inactive: -0.043 | inactive: -0.054 | inactive: 0 | inactive: 0.098 | inactive: 0.099 | inactive: -0.101
WDR12 (UniProt Q9GZL7) | inactive: 0.019 | inactive: -0.096 | inactive: -0.044 | inactive: -0.039 | inactive: -0.012 | inactive: 0.02 | inactive: 0.044 | inactive: 0.002 | inactive: -0.069 | inactive: -0.03
VPS13D (UniProt Q5THJ4) | inactive: -0.027 | inactive: -0.11 | inactive: -0.178 | inactive: -0.016 | inactive: -0.026 | inactive: 0.068 | inactive: -0.029 | inactive: 0.015 | inactive: 0.26 | inactive: -0.012
WIPF3 (UniProt A6NGB9) | inactive: 0.001 | inactive: -0.052 | inactive: -0.118 | inactive: 0.155 | inactive: -0.049 | inactive: 0 | inactive: -0.029 | inactive: -0.032 | inactive: 0.018 | inactive: 0.046
WIZ isoform 3 (UniProt O95785) | inactive: -0.019 | inactive: 0.077 | inactive: -0.121 | inactive: 0.051 | inactive: -0.11 | inactive: 0.163 | inactive: 0.029 | inactive: 0.069 | inactive: 0.138 | inactive: -0.16
WDR18 (UniProt Q9BV38) | inactive: 0.013 | inactive: -0.021 | inactive: -0.043 | inactive: 0.054 | inactive: 0.019 | inactive: 0.025 | inactive: 0.018 | inactive: 0.013 | inactive: -0.03 | inactive: 0.017
WDR3 (UniProt Q9UNX4) | inactive: 0.097 | inactive: 0.122 | inactive: 0.147 | inactive: 0.102 | inactive: 0.012 | inactive: 0.013 | inactive: 0.002 | inactive: 0.264 | inactive: 0.157 | inactive: -0.11
VWDE (UniProt Q8N2E2) | inactive: -0.017 | inactive: 0.039 | inactive: 0.007 | inactive: 0.06 | inactive: -0.018 | inactive: 0.012 | inactive: 0.04 | inactive: -0.001 | inactive: -0.078 | inactive: -0.082
VPS51 (UniProt Q9UID3) | inactive: -0.02 | inactive: -0.119 | inactive: -0.082 | inactive: -0.048 | inactive: 0.07 | inactive: -0.035 | inactive: -0.002 | inactive: 0.068 | inactive: 0.022 | inactive: 0.1
VPS52 (UniProt Q8N1B4) | inactive: 0.065 | inactive: -0.005 | inactive: -0.132 | inactive: -0.039 | inactive: 0.037 | inactive: 0.086 | inactive: 0.015 | inactive: 0.08 | inactive: 0.02 | inactive: 0.016
VRK1 (UniProt Q99986) | inactive: -0.056 | inactive: 0.025 | inactive: -0.11 | inactive: -0.144 | inactive: 0.059 | inactive: 0.046 | inactive: 0.023 | inactive: -0.028 | inactive: -0.138 | inactive: 0.063
VPS26B (UniProt Q4G0F5) | inactive: -0.037 | inactive: -0.077 | inactive: -0.106 | inactive: -0.038 | inactive: -0.004 | inactive: 0.018 | inactive: 0.019 | inactive: 0 | inactive: 0.007 | inactive: -0.037
VPS4B (UniProt O75351) | inactive: -0.05 | inactive: -0.052 | inactive: -0.137 | inactive: -0.093 | inactive: 0.029 | inactive: 0 | inactive: 0.024 | inactive: 0.018 | inactive: -0.037 | inactive: -0.033
WDFY1 (UniProt Q8IWB7) | inactive: -0.023 | inactive: 0.097 | inactive: -0.078 | inactive: 0.043 | inactive: -0.007 | inactive: -0.044 | inactive: 0.009 | inactive: 0.076 | inactive: -0.037 | inactive: 0.024
VKORC1L1, A0A3B3ISV4 | inactive: -0.008 | inactive: -0.02 | inactive: -0.051 | inactive: -0.015 | inactive: -0.031 | inactive: -0.094 | inactive: -0.067 | inactive: 0.06 | inactive: -0.062 | inactive: -0.08
WDR41 (UniProt Q9HAD4) | inactive: 0 | inactive: -0.005 | inactive: -0.173 | inactive: -0.005 | inactive: 0.038 | inactive: 0.091 | inactive: 0.036 | inactive: 0.031 | inactive: -0.11 | inactive: -0.07
WDR45 (UniProt Q9Y484) | inactive: -0.018 | inactive: 0.016 | inactive: -0.063 | inactive: 0.015 | inactive: -0.013 | inactive: 0.03 | inactive: 0.046 | inactive: 0.048 | inactive: -0.053 | inactive: -0.054
WDR92 (UniProt Q96MX6) | inactive: -0.052 | inactive: -0.076 | inactive: -0.028 | inactive: -0.015 | inactive: 0.011 | inactive: 0.003 | inactive: -0.002 | inactive: -0.044 | inactive: -0.03 | inactive: -0.035
WASHC2A (UniProt Q641Q2) | inactive: -0.013 | inactive: -0.012 | inactive: -0.159 | inactive: 0.021 | inactive: -0.038 | inactive: 0.024 | inactive: -0.035 | inactive: 0.072 | inactive: 0.016 | inactive: -0.056
VPS41 (UniProt P49754) | inactive: -0.006 | inactive: -0.163 | active: -0.267 | inactive: -0.163 | inactive: 0.083 | inactive: 0.072 | inactive: 0.082 | inactive: -0.006 | inactive: -0.046 | inactive: -0.056
WASHC4 (UniProt Q2M389) | inactive: -0.023 | inactive: 0.002 | inactive: -0.193 | inactive: -0.096 | inactive: 0.099 | inactive: 0.068 | inactive: 0.026 | inactive: -0.002 | inactive: 0.084 | inactive: -0.049
WBP4 (UniProt O75554) | active: 0.28 | inactive: 0.079 | inactive: 0.006 | inactive: 0.111 | inactive: 0.058 | inactive: 0.098 | inactive: 0.055 | inactive: -0.026 | inactive: 0 | inactive: -0.007
WDR61 (UniProt Q9GZS3) | inactive: -0.013 | inactive: -0.058 | inactive: -0.102 | inactive: -0.069 | inactive: -0.052 | inactive: 0 | inactive: 0.028 | inactive: -0.005 | inactive: -0.045 | inactive: -0.057
WDR46 (UniProt O15213) | inactive: 0.098 | inactive: 0.083 | inactive: 0.253 | inactive: 0.177 | inactive: -0.027 | inactive: -0.042 | inactive: -0.139 | inactive: 0.173 | inactive: 0.257 | inactive: -0.143
VPS8 (UniProt Q8N3P4) | inactive: -0.035 | inactive: -0.125 | inactive: -0.15 | inactive: -0.088 | inactive: 0.077 | inactive: 0.158 | inactive: -0.004 | inactive: 0.078 | inactive: -0.006 | inactive: -0.012

Full records as entered above. Order of values: log2 fold change [1] | log2 fold change [2] | log2 fold change [3] | log2 fold change [4] | log2 fold change (entinostat) | log2 fold change (vorinostat) | log2 fold change (citarinostat) | log2 fold change (silmitasertib) | log2 fold change [5] | log2 fold change [6]
VPS4B (UniProt O75351) is entered as inactive: -0.05 | inactive: -0.052 | inactive: -0.137 | inactive: -0.093 | inactive: 0.029 | inactive: 0 | inactive: 0.024 | inactive: 0.018 | inactive: -0.037 | inactive: -0.033
VTI1A (UniProt Q96AJ9) is entered as inactive: -0.07 | inactive: 0.014 | inactive: -0.125 | inactive: -0.014 | inactive: -0.009 | inactive: 0.028 | inactive: -0.016 | inactive: 0.051 | inactive: -0.01 | inactive: -0.039
